The text below walks through data of patent US20230040568A1.

These are yes or no findings as the source states them, for the method shown. Some entries that bind do so weakly or less than the wild type. Where a sequence is shown, tags or fusion partners need not be part of it.

The target in this experiment is T1, TMIGD2 expressed on 3T3 cells (UniProt Q96BF3).
T1 sequence (looked up): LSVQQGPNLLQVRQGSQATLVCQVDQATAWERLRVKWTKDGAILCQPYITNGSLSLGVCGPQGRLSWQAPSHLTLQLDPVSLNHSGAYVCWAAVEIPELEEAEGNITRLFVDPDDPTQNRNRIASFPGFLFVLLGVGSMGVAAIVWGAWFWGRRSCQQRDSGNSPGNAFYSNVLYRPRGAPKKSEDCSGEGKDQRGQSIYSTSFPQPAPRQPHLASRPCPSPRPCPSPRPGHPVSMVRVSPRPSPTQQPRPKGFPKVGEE
Description: FACS, staining of 3T3 cells expressing TMIGD2 (FIG. 8). In general terms: A flow cytometer gives signals particle by particle.

B1: HHLA2-IgV1-hIgG fusion polypeptide (Fc fusion, UniProt Q9UM44 23-137, looked up, not shown: a dimerising Fc or GST)
chain: IFPLAFFIYVPMNEQIVIGRLDEDIILPSSFERGSEVVIHWKYQDSYKVHSYYKGSDHLESQDPRYANRTSLFYNEIQNGNASLFFRRVSLLDEGIYTCYVGTAIQVITNKVVLK
As for B1, the binding result is “binds”.
